From publication PMC1382259
Results are given in words; binding and its absence hold for the method and conditions named. Binding seen in cells or lysates may run through a third protein. Some results given as binding are weak or reduced against the parent protein; the word gives no strength. For part of these data: Where a sequence is shown, tags or fusion partners need not be part of it.

By UniProt entry, the sequences of proteins in these tests, tags left out. Where a name states a change or a piece, a line headed by the entry shows the natural chain unless it says otherwise.
UniProt P62140: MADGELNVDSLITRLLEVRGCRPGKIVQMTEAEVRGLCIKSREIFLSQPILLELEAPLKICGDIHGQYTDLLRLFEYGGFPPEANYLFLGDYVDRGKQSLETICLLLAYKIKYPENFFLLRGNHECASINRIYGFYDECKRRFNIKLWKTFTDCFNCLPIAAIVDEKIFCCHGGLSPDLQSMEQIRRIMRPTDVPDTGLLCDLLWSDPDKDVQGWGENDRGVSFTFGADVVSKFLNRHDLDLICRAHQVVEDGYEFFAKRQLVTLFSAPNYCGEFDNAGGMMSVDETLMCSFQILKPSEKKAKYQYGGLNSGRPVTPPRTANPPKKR
UniProt P62136: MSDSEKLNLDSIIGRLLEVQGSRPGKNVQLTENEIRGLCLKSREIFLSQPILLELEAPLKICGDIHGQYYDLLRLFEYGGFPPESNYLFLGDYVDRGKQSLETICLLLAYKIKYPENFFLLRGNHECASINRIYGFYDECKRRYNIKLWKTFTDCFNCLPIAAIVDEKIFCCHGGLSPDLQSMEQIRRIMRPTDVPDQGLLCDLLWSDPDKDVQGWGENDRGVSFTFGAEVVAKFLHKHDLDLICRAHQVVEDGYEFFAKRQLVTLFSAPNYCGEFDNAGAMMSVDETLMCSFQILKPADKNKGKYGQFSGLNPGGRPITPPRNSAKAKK
UniProt P36873: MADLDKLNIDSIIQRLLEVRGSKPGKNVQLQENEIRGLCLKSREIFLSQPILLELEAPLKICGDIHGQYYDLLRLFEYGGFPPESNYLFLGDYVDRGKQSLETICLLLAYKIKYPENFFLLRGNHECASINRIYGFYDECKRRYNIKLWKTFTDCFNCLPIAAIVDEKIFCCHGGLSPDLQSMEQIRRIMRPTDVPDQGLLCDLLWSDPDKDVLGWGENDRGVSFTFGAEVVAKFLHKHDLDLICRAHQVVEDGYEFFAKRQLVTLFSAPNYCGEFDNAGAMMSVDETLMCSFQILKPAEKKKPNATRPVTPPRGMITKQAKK

What was measured:
[1] = biological target: T1, pMAL-RbCT (Rb C-terminus, residues 792-928) (UniProt P06400); assay: pull-down; pMAL fusion proteins from bacterial extracts on Amylose resin, mixed with mitotic HeLa cell lysate (2.5 mg/PD), 4°C 90 min, washed in cell lysis buffer; immunoblot with isoform-specific antibodies; only the target purified
T1 sequence: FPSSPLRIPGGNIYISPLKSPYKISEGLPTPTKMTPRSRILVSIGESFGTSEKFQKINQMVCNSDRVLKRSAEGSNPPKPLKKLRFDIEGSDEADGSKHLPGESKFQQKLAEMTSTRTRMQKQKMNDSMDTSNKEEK

[2] = biological target: T2, pMAL-RbBP (Rb big pocket, residues 379-928) (UniProt P06400); assay: as above
T2 sequence: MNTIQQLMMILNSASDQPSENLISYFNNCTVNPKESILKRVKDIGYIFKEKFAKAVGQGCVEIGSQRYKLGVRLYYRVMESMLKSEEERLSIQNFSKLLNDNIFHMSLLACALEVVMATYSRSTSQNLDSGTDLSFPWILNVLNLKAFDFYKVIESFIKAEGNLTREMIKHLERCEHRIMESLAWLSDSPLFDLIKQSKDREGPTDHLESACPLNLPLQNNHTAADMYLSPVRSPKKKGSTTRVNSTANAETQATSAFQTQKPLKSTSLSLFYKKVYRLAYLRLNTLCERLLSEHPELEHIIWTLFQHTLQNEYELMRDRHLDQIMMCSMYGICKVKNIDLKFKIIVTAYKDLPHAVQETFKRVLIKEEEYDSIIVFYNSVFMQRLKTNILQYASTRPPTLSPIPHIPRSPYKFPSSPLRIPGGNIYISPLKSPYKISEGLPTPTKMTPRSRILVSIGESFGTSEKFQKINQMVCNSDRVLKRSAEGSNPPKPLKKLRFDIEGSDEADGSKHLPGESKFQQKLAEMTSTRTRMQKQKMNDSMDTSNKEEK

Full-length GST-pRb [3] = biological target: T3, Full-length GST-pRb (UniProt P06400); assay: pull-down; affinity chromatography: 40 mg mitotic HeLa extract on a 1 ml GST-Rb-Sepharose column, eluted with 300 mM NaCl; fractions assayed for PP1 activity, pool immunoblotted for the PP1 isoforms, then gel filtration on Superose 12; only the target purified
T3 sequence: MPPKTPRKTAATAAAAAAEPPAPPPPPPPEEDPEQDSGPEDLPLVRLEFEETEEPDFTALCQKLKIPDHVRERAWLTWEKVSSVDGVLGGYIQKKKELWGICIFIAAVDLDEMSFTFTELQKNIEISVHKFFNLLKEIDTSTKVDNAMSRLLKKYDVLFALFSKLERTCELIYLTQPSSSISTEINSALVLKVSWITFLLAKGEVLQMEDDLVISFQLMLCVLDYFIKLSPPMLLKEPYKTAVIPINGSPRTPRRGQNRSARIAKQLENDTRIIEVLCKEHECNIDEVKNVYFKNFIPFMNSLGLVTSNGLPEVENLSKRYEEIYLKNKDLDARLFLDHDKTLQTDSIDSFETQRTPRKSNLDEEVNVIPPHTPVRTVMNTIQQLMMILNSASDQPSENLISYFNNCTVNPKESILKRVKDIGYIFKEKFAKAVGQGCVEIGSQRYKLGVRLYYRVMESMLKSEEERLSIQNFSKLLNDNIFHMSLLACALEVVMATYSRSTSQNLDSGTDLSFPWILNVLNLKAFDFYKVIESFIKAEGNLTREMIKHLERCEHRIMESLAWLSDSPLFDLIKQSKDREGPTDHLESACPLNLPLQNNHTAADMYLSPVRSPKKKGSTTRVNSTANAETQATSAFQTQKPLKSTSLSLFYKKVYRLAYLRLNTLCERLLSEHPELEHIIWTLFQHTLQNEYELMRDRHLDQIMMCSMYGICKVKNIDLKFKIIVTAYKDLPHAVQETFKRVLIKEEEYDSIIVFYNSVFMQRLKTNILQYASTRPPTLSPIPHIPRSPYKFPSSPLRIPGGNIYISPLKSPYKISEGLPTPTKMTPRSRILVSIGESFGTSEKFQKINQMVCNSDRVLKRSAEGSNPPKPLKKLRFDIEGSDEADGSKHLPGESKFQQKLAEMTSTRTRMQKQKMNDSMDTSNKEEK

[4] = biological target: T4, GST-Rb-C-terminal (RbCT, residues 792-928) (UniProt P06400); assay: pull-down; data not shown: affinity columns with GST- or pMAL-RbBP and GST- or pMAL-RbCT, mitotic or asynchronous HeLa extracts; PP1 activity peak, gel filtration; only the target purified
T4 sequence: T1 sequence

[5] = biological target: T1, pMAL-RbCT (Rb C-terminus, residues 792-928); assay: as above
[6] = biological target: T5, GST-Rb-big pocket (RbBP, residues 379-928) (UniProt P06400); assay: as above
T5 sequence: T2 sequence

[7] = biological target: T2, pMAL-RbBP (Rb big pocket, residues 379-928); assay: as above
[8] = biological target: T5, GST-Rb-big pocket (RbBP, residues 379-928); assay: pull-down; GST fusion proteins from bacterial extracts on glutathione-Sepharose beads (pre-treated with BSA), mixed with 2-3 mg of mitotic or asynchronous HeLa cell extract, 4°C 90 min, washed in 50 mM TRIS-HCl pH 7.5, 250 mM NaCl, 5 mM EDTA, 0.1 % Triton X-100; immunoblot with isoform-specific antibodies; only the target purified
Full-length GST-pRb [9] = biological target: T3, Full-length GST-pRb; assay: as above

binding [1] | binding [2] | binding (Full-length GST-pRb [3]) | binding [4] | binding [5] | binding [6] | binding [7] | binding [8] | binding (Full-length GST-pRb [9]) | Substance
binds | binds | binds | binds | binds | binds | binds | binds | binds | PP1δ catalytic subunit (from UniProt P62140 1-327) (enzyme)
binds | binds | binds | binds | binds | binds | binds | binds | binds | PP1α catalytic subunit (from UniProt P62136 1-330) (enzyme)
binds | binds | binds | binds | binds | binds | binds | binds | binds | PP1γ1 catalytic subunit (from UniProt P36873 1-323) (enzyme)
